Measured values from paper PMC7061876.
The exact form of at least one protein or probe is not confirmed.

Tested on: His-SlPIF4 (Solanum lycopersicum)
Experiment: EMSA
Conditions: LightShift Chemiluminescent EMSA kit binding buffer (composition and pH not given), 20 min at room temperature; 6% native PAGE in Tris-glycine, 100 V; recombinant protein; protein details: His (pET-32a vector); label: biotin

Row | Sequence | binding result
1 | ATCACGTGTCACGTGGTTAAA (double strand) [GAI4-G1/2-wt] | binds
2 | CTCAATTTTACACGTGTGTCCGCCTA (double strand) [CBF1-G2-wt] | binds
